We go through three molecules from patent US20080299592A1, “Red-Shifted Luciferase” (priority 2007, published 2008).

This series concerns tetracysteine-tagged firefly luciferase. In words: BRET from tetracysteine-tagged firefly luciferase constructs to ReAsH. It is filed as biochemical. The note with it: for emission wavelength maximum after treatment with ReAsH: in vitro; for shift in the emission wavelength maximum: treatment with ReAsH; for emission centre of tagged luciferase: without acceptor dye. From the text:
Firefly luciferase fusion proteins with an optimized tetracysteine (TC) tag ([…]; SEQ ID NO:1) (Martin et al., Nature Biotechnology, 2005, 23:1308-14) fused onto either the amino (TCLuc1) or carboxy (TCLuc2) terminus of the luciferase protein (Promega's pGL3 (GenBank No. U47295.2)) were cloned and expressed (see list in Table 1). The proteins were expressed in E. Coli as GST fusions, purified by glutathione agarose affinity chromatography, and eluted as the TC-tagged protein by cleavage with PreScission™ protease.
The emission spectrum is sharpened, such that the maximum at 608 nm is actually higher than the 560 nm peak of luciferase (FIG. 3).
To help evaluate the role of distance and orientation on the BRET efficiency, additional N-terminal fusions of the TC tag were constructed (Table 1). […] The best-performing TCLuc1 fusion was cloned into pcDNA3.1 for expression in mammalian tissue culture cells. This construct lacks a C-terminal peroxisomal targeting sequence, and thus the expressed luciferase will localize to the cytoplasm.
A general note: BRET reads energy transfer from a luciferase to a nearby fluorophore.

As to `O=c1ccc2nc3ccc(O)c([As]4SCCS4)c3oc-2c1[As]1SCCS1` [ReAsH, reference compound], the “emission wavelength maximum after treatment with ReAsH” value amounted to 608 nm.

B1: TCLuc1: Firefly luciferase with optimized tetracysteine tag fused at the amino terminus, SEQ ID NO:2 (protein)
chain: GPLGSFLNCCPGCCMEPGSMEDAKNIKKGPAPFYPLEDGTAGEQLHKAMKRYALVPGTIAFTDAHIEVDITYAEYFEMSVRLAEAMKRYGLNTNHRIVVCSENSLQFFMPVLGALFIGVAVAPANDIYNERELLNSMGISQPTVVFVSKKGLQKILNVQKKLPIIQKIIIMDSKTDYQGFQSMYTFVTSHLPPGFNEYDFVPESFDRDKTIALIMNSSGSTGLPKGVALPHRTACVRFSHARDPIFGNQIIPDTAILSVVPFHHGFGMFTTLGYLICGFRVVLMYRFEEELFLRSLQDYKIQSALLVPTLFSFFAKSTLIDKYDLSNLHEIASGGAPLSKEVGEAVAKRFHLPGIRQGYGLTETTSAILITPEGDDKPGAVGKVVPFFEAKVVDLDTGKTLGVNQRGELCVRGPMIMSGYVNNPEATNALIDKDGWLHSGDIAYWDEDEHFFIVDRLKSLIKYKGYQVAPAELESILLQHPNIFDAGVAGLPDDDAGELPAAVVVLEHGKTMTEKEIVDYVASQVTTAKKLRGGVVFVDEVPKGLTGKLDARKIREILIKAKKGGKIAV
Consider B1, for which the “shift in the emission wavelength maximum” value is “about 50 nm”, the “emission wavelength maximum after treatment with ReAsH” value stood at 608 nm and the “emission centre of tagged luciferase” value turned out to be 560 nm.

B2: TCLuc2: Firefly luciferase with optimized tetracysteine tag fused at the carboxy terminus, SEQ ID NO:3 (protein)
chain: GPLGSMEDAKNIKKGPAPFYPLEDGTAGEQLHKAMKRYALVPGTIAFTDAHIEVDITYAEYFEMSVRLAEAMKRYGLNTNHRIVVCSENSLQFFMPVLGALFIGVAVAPANDIYNERELLNSMGISQPTVVFVSKKGLQKILNVQKKLPIIQKIIIMDSKTDYQGFQSMYTFVTSHLPPGFNEYDFVPESFDRDKTIALIMNSSGSTGLPKGVALPHRTACVRFSHARDPIFGNQIIPDTAILSVVPFHHGFGMFTTLGYLICGFRVVLMYRFEEELFLRSLQDYKIQSALLVPTLFSFFAKSTLIDKYDLSNLHEIASGGAPLSKEVGEAVAKRFHLPGIRQGYGLTETTSAILITPEGDDKPGAVGKVVPFFEAKVVDLDTGKTLGVNQRGELCVRGPMIMSGYVNNPEATNALIDKDGWLHSGDIAYWDEDEHFFIVDRLKSLIKYKGYQVAPAELESILLQHPNIFDAGVAGLPDDDAGELPAAVVVLEHGKTMTEKEIVDYVASQVTTAKKLRGGVVFVDEVPKGLTGKLDARKIREILIKAKKGGKIAVFLNCCPGCCMEP
With B2, the “shift in the emission wavelength maximum” value was “about 50 nm”, the “emission wavelength maximum after treatment with ReAsH” value is 608 nm and the “emission centre of tagged luciferase” value was 560 nm.
